In patent US20180256645A1:
These are yes or no findings as the source states them, for the method shown. Some results given as binding are weak or reduced against the parent protein; the word gives no strength. Sequences can lack the tags named with a protein.

Molecular target: T1, murine/mouse full length CXCR6 (chemokine receptor 6), expressed on transduced murine CD8+ T cells (murine/mouse) (UniProt Q9EQ16)
T1 sequence: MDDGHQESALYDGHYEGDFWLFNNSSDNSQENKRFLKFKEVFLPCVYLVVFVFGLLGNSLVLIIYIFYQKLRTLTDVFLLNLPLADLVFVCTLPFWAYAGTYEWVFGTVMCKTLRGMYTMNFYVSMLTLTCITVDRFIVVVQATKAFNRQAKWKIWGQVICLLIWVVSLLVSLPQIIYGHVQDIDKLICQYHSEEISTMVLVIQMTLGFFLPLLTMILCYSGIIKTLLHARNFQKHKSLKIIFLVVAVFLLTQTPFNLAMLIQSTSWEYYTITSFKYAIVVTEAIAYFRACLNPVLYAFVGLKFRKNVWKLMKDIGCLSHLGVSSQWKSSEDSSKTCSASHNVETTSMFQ
Test: cell adhesion assay: calcein-stained CXCR6-transduced CD8+ T cells on nickel plates coated with 9 pmol His-tagged CXCL16 or BSA, with or without anti-mouse CXCL16 neutralizing antibody; fluorescence of adherent cells

binding: binds
B1: His-tagged CXCL16 (Cat. Number 50142-M08H, SinoBiological, Peking, China) (ligand, UniProt Q8BSU2 27-201, looked up, not shown: small tags and cut ends)
chain: NQGSVAGSCSCDRTISSGTQIPQGTLDHIRKYLKAFHRCPFFIRFQLQSKSVCGGSQDQWVRELVDCFERKECGTGHGKSFHHQKHLPQASTQTPEAAEGTPSDTSTPAHSQSTQHSTLPSGALSLNKEHTQPWEMTTLPSGYGLEARPEAEANEKQQDDRQQEAPGAGASTPAW
